Experimental data published in publication doi:10.1101/2022.04.01.486681.
No constants are given. Whether binding was seen depends on the method and setting. Some results given as binding are weak or reduced against the parent protein; the word gives no strength.

Key:
[1] = biological target: T1, PAD4 (Phytoalexin Deficient 4) (Arabidopsis) (UniProt Q9S745); assay: co-purification
T1 sequence: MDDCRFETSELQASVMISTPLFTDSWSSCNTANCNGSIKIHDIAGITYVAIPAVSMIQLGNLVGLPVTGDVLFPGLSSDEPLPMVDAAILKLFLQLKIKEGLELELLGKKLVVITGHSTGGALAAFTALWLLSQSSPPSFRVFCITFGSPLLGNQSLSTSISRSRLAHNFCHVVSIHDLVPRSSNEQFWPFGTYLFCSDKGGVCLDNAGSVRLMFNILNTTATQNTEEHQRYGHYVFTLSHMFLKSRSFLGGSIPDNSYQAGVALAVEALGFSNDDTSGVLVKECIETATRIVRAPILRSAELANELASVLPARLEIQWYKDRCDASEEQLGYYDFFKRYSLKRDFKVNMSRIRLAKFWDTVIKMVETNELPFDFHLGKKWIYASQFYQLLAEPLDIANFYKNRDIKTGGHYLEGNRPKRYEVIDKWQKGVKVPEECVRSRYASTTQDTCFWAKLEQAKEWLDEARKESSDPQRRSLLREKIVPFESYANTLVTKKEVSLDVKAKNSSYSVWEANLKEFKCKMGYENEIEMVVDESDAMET

[2] = biological target: T1, PAD4 (Phytoalexin Deficient 4) (Arabidopsis); assay: cryo-EM structure
[3] = biological target: T1, PAD4 (Phytoalexin Deficient 4) (Arabidopsis); assay: crystal structure

binding [1]: binds
binding [2]: binds
binding [3]: binds
B1: EDS1 (Enhanced Disease Susceptibility 1) (protein, UniProt Q9XF23 1-623)
chain: MAFEALTGINGDLITRSWSASKQAYLTERYHKEEAGAVVIFAFQPSFSEKDFFDPDNKSSFGEIKLNRVQFPCMRKIGKGDVATVNEAFLKNLEAVIDPRTSFQASVEMAVRSRKQIVFTGHSSGGATAILATVWYLEKYFIRNPNVYLEPRCVTFGAPLVGDSIFSHALGREKWSRFFVNFVTRFDIVPRITLARKASVEETLPHVLAQLDPRNSSVQESEQRITEFYTSVMRDTSTVANQAVCELTGSAEAILETLSSFLELSPYRPAGTFVFSTEKRLVAVNNSDAILQMLFYTCQASDEQEWSLIPFRSIRDHHSYEELVQSMGMKLFNHLDGENSIESSLNDLGVSTRGRQYVQAALEEEKKRVENQKKIIQVIQQERFLKKLAWIEDEYKPKCQAHKNGYYDSFKVSNEENDFKANVKRAELAGVFDEVLGLLKKCQLPDEFEGDIDWIKLATRYRRLVEPLDIANYHRHLKNEDTGPYMKRGRPTRYIYAQRGYEHHILKPNGMIAEDVFWNKVNGLNLGLQLEEIQETLKNSGSECGSCFWAEVEELKGKPYEEVEVRVKTLEGMLREWITAGEVDEKEIFLEGSTFRKWWITLPKNHKSHSPLRDYMMDEITDT
